At least one structure is not confirmed: it was looked up by name or label, or the drawing left a doubt.
Target: T1, p53 Y220C (Homo sapiens, UniProt P04637, P309S/R273H/Y220C)
T1 construct: made in house; host or cells: E. coli
Assay: Compound specificity test: HTRF DNA binding assay with biotin DNA duplex of random DNA sequence
Format: biochemical
Conditions: biotin DNA duplex with a random DNA sequence under identical conditions; FIG. 2

Protein sequences, listed by entry. Tags and fused reporters are not part of them. Lines headed by an entry give the natural chain unless they say otherwise; changes in a name come on top.
UniProt P04637: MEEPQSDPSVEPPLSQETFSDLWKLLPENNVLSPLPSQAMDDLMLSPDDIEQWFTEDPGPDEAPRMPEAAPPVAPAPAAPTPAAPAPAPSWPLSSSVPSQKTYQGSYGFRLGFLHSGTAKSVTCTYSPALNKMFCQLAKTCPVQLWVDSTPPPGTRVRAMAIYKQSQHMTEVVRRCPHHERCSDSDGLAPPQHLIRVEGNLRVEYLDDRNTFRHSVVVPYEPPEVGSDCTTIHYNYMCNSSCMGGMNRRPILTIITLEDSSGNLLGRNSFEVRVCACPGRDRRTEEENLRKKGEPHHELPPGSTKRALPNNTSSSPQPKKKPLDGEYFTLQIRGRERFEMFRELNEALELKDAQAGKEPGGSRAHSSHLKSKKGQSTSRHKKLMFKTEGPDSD

SMILES: CCn1c(C#CCNc2ccccc2)cc2cc(CNC)ccc21 [Example 2, 1-Anilino-3-{1-ethyl-5-[(methylamino)methyl]-1H-indol-2-yl}-2-propyne]
- specificity of DNA binding activation for the consensus DNA sequence: specific to the consensus sequence of SEQ ID NO.: 2

From patent US20220213062A1, “METHODS AND COMPOUNDS FOR RESTORING MUTANT p53 FUNCTION” (PMV Pharmaceuticals, Inc., priority 2016, published 2022)
